Results reported in the supplement of paper PMC10849652.
This is one part of the list.

Protein sequences, listed by entry. Tags and fused reporters are not part of them. Lines headed by an entry give the natural chain unless they say otherwise; changes in a name come on top.
UniProt P49720: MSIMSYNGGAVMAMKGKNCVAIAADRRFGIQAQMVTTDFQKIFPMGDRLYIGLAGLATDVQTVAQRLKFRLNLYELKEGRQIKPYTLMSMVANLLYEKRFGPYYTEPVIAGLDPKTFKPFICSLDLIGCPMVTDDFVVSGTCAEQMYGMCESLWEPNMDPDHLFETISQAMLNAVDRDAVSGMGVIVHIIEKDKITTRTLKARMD
UniProt Q13200: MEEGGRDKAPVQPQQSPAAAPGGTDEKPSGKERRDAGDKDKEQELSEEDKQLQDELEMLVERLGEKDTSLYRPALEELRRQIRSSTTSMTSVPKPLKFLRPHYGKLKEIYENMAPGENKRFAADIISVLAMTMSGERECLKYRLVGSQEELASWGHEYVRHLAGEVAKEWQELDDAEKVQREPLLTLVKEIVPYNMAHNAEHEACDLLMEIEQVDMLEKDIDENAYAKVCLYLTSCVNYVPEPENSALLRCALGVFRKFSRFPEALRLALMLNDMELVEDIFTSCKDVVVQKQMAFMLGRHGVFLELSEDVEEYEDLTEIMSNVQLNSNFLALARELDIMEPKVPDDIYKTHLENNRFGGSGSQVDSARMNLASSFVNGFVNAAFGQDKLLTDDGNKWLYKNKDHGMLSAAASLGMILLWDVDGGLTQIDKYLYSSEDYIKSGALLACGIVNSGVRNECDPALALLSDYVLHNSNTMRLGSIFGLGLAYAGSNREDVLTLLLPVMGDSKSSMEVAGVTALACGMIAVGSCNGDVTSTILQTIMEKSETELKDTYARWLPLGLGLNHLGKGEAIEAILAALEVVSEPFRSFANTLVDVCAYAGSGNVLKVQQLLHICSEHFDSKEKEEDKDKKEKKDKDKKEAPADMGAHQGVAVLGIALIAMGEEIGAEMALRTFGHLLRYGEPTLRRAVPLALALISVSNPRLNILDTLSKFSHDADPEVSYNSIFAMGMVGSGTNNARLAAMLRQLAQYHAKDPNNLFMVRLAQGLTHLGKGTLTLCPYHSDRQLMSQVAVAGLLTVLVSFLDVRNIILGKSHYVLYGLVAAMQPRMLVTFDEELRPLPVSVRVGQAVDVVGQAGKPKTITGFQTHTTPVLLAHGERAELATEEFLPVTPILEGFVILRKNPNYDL
UniProt Q08623: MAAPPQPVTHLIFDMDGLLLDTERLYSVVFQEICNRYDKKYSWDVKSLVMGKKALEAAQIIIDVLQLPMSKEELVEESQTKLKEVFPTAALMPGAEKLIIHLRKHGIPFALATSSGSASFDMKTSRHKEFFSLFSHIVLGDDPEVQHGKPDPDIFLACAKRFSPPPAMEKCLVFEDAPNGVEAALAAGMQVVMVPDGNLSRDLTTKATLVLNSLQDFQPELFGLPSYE
UniProt Q6GMV3: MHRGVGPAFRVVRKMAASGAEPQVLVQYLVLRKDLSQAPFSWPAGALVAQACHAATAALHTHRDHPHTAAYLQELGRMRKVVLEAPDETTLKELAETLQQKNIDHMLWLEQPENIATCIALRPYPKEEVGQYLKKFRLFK
UniProt Q14997: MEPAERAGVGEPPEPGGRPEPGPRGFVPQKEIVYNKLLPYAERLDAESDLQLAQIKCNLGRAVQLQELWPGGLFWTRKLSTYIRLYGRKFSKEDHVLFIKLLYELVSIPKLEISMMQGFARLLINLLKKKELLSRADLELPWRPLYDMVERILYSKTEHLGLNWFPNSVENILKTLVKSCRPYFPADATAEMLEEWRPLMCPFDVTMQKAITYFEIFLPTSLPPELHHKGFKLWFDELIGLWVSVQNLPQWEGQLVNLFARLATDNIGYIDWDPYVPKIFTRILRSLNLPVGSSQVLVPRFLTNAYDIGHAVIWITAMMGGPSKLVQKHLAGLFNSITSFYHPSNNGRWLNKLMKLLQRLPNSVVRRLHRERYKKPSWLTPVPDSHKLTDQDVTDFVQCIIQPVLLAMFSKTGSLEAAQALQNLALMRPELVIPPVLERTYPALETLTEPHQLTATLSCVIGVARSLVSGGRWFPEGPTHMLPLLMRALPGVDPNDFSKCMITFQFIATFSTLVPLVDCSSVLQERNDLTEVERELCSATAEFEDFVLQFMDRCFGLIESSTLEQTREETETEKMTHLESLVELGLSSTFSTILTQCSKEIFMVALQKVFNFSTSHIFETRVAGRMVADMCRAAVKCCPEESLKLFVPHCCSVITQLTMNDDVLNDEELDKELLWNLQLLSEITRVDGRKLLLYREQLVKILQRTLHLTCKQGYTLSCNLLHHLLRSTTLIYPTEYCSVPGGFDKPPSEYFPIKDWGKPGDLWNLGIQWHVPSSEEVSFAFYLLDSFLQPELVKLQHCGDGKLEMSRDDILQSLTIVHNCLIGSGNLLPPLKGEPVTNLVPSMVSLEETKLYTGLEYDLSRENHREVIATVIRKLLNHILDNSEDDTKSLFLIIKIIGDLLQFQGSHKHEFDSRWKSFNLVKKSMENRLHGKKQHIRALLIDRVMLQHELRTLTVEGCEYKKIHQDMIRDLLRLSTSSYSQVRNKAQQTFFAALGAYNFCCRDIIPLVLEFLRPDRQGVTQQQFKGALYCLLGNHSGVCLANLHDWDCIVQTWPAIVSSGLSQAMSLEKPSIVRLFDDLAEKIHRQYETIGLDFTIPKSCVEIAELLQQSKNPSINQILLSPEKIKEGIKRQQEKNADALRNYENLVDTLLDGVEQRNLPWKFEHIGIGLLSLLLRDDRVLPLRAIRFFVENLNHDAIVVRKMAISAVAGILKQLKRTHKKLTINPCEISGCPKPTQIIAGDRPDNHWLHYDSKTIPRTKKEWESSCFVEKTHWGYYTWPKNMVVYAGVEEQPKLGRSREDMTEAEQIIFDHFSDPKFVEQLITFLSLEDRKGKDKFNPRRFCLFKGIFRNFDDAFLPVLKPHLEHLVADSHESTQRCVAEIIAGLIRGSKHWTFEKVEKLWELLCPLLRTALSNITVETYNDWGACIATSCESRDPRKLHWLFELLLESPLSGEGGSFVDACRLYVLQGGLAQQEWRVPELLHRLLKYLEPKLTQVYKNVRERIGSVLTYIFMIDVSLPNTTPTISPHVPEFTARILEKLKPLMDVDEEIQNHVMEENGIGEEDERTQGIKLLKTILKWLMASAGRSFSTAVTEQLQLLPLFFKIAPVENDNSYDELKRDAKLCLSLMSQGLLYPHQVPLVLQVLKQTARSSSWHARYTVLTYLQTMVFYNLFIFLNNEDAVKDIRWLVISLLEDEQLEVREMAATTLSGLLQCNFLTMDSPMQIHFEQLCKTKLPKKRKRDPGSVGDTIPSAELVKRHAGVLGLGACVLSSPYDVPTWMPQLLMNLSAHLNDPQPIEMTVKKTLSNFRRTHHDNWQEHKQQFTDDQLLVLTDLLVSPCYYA
UniProt Q03393: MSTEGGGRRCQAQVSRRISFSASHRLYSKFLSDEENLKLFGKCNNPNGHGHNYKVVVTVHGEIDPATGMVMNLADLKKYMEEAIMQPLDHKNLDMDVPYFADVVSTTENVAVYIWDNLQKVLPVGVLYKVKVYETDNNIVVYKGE
UniProt Q96M27: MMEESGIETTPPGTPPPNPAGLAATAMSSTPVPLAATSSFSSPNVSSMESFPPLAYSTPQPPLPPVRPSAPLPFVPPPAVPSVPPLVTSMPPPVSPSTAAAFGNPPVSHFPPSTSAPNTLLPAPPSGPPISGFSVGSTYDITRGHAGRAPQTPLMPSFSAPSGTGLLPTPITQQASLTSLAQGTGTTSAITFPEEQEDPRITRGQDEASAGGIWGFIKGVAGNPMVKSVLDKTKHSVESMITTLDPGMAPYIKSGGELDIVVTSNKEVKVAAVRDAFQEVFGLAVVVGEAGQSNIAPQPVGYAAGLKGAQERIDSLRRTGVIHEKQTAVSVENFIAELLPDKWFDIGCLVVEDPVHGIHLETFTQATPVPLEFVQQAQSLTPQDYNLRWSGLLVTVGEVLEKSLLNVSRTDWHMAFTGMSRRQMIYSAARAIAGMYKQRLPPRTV
UniProt Q9BT73: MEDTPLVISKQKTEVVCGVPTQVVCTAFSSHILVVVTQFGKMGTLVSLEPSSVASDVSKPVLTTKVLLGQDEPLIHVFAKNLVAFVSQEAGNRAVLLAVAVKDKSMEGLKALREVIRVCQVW
UniProt Q9P2B2: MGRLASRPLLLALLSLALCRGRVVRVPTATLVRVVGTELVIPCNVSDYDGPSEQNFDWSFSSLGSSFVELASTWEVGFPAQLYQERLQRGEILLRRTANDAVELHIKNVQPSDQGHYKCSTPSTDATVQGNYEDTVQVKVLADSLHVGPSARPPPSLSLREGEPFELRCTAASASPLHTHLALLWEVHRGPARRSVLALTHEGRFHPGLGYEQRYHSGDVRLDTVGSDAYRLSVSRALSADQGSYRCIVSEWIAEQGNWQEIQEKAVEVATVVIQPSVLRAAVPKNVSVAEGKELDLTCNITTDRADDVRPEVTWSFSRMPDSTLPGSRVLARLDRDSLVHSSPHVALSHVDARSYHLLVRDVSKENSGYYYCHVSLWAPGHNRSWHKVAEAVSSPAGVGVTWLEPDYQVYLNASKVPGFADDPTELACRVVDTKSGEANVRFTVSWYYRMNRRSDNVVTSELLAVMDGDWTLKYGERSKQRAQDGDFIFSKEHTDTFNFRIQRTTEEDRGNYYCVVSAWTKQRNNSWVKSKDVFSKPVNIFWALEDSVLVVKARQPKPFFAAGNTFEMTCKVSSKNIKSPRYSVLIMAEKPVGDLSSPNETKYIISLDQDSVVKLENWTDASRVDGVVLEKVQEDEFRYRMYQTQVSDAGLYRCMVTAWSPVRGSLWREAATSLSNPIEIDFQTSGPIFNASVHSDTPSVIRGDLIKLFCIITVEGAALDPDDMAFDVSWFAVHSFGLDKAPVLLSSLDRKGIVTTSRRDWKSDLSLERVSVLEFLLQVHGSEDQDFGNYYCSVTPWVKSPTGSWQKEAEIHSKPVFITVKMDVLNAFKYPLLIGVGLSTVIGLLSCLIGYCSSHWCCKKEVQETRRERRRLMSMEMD
UniProt P48556: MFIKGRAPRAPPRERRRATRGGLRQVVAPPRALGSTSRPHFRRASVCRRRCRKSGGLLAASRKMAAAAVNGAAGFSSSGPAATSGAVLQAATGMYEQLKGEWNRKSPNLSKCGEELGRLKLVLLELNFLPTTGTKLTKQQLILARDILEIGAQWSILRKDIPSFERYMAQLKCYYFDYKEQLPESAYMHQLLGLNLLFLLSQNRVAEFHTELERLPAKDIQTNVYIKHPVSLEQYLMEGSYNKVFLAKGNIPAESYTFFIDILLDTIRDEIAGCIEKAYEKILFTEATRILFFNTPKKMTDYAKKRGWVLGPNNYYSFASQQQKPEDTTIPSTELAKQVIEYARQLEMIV
UniProt Q8N8N7: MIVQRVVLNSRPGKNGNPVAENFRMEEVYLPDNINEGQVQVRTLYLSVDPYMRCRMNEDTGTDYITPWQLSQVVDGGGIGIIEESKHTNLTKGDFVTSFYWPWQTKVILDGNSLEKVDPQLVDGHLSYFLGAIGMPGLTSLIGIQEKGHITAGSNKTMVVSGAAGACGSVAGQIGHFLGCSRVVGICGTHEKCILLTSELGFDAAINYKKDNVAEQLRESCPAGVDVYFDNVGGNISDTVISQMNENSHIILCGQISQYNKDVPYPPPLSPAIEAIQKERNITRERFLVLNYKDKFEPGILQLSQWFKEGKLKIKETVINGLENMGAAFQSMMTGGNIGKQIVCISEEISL
UniProt Q9Y617: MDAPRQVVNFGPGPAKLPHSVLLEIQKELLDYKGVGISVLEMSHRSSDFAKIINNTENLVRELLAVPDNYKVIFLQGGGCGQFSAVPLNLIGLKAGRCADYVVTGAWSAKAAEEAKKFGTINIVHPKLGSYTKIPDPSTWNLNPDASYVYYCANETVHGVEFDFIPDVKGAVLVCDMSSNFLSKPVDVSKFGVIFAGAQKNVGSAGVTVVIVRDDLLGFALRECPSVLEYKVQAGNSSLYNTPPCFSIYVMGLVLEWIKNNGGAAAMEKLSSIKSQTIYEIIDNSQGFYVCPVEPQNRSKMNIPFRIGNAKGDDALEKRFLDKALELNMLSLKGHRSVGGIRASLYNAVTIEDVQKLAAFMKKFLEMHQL
UniProt Q9Y3E5: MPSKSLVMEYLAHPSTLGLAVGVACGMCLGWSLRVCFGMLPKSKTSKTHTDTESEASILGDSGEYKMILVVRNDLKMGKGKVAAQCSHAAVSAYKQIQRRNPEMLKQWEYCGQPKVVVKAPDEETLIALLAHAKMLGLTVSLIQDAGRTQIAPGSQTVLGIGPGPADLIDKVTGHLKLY
UniProt Q5JS54: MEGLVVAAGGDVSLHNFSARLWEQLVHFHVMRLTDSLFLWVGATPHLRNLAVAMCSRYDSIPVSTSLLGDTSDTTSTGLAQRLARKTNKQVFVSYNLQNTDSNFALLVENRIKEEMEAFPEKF
UniProt P28070, whole entry, looked up: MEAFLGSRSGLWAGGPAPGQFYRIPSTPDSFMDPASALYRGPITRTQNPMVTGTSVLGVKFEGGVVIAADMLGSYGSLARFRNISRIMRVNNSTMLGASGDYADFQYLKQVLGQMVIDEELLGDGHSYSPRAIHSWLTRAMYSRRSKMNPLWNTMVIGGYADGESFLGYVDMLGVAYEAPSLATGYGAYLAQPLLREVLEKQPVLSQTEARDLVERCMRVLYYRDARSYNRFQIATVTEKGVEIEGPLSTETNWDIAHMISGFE

Key:
Experiment in all cases: log2 fold change, soluble protein after heating vs DMSO (PISA); higher = thermal stabilisation; K562 lysate, 10 uM; active = over 0.2 and 3.5 SD of the protein, either way, in both replicates (recomputed)
ibrutinib = compound: C=CC(=O)N1CCC[C@@H](n2nc(-c3ccc(Oc4ccccc4)cc3)c3c(N)ncnc32)C1 [ibrutinib]
Procedure, shortened: (§1)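 The values are log-two fold changes in thermal stability compared with solvent controls and come from duplicates. They were obtained by TMTpro 16plex LC-MS/MS, with channel sums equalised, on the supernatant after 21,000xg for 90 min. That supernatant came from crude K562 extract at 1 mg/mL protein treated with 10 μM compound for 30 min, heated for 3 min across 48°C-58°C, pooled and brought to 0.5% NP-40 at 4°C.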

[1] = compound: CC(=O)c1cnc2ccc(-c3cc(Cl)c(O)c(Cl)c3)nc2c1N[C@H]1CC[C@H](CN(C)C)CC1
Procedure, shortened: as §1

ralimetinib = compound: CC(C)(C)Cn1c(N)nc2ccc(-c3[nH]c(C(C)(C)C)nc3-c3ccc(F)cc3)nc21 [ralimetinib]
Procedure, shortened: as §1

[2] = compound: CC(C)(O)CC(=O)NCCn1ccc2ncnc(Nc3ccc(Oc4cccc(C(F)(F)F)c4)c(Cl)c3)c21
Procedure, shortened: as §1

[3] = compound: CC(C)C1=C2N=C(C=C(N2N=C1)NCC3=CC=CC=C3)NCCCCCCN
Procedure, shortened: as §1

[4] = compound: CC1=C(C(CC(=O)N1)C2=CC=C(C=C2)C(F)(F)F)C(=O)NC3=C(C=C4C(=C3)C=NN4)F
Procedure, shortened: as §1

[5] = compound: CC1=C(C2=C(C=C1)C(=O)C3=CC=CC=C3N2CCCN)C
Procedure, shortened: as §1

[6] = compound: CC1=C(C=C(C=C1)NC(=O)C2=CC(=CC=C2)C(C)(C)C#N)NC3=CC4=C(C=C3)N=CN(C4=O)C
Procedure, shortened: as §1

[7] = compound: CC1=C(C=C(C=C1)NC(=O)C2=CC(=CC=C2)N(C)C)NC(=O)C3=CC=C(C=C3)O
Procedure, shortened: as §1

[8] = compound: CC1=CC=C(C=C1)SC2=C3C=C(SC3=CN=C2)C(=O)N
Procedure, shortened: as §1

Measured: log2 fold change

PTBP2 isoform 2 (UniProt Q9UKA9)
inactive: ibrutinib 0.056 | [1] -0.092 | ralimetinib 0.012 | [2] 0.011 | [3] 0.018 | [4] -0.025 | [5] -0.1 | [6] 0.037 | [7] 0.032 | [8] 0.019

PSMB3 (UniProt P49720)
inactive: ibrutinib -0.008 | [1] 0.011 | ralimetinib 0.011 | [2] -0.026 | [3] 0 | [4] -0.014 | [5] -0.01 | [6] -0.007 | [7] 0.001 | [8] -0.006

PTPRC (UniProt P08575)
inactive: ibrutinib 0.009 | [1] -0.004 | ralimetinib 0.01 | [2] -0.008 | [3] -0.01 | [4] 0 | [5] -0.006 | [6] 0 | [7] -0.021 | [8] -0.013

PTPN2 (UniProt P17706)
inactive: ibrutinib 0.016 | [1] -0.014 | ralimetinib 0.014 | [2] -0.001 | [3] -0.029 | [4] -0.035 | [5] 0.045 | [6] -0.005 | [7] 0.017 | [8] 0.007

PSMD2 (UniProt Q13200)
inactive: ibrutinib -0.019 | [1] -0.001 | ralimetinib 0.004 | [2] -0.011 | [3] -0.004 | [4] -0.002 | [5] -0.009 | [6] 0.006 | [7] 0.005 | [8] 0.008

PUDP isoform 4 (UniProt Q08623)
inactive: ibrutinib 0.053 | [1] 0.003 | ralimetinib -0.007 | [2] 0.012 | [3] -0.001 | [4] -0.044 | [5] -0.031 | [6] 0.042 | [7] 0.01 | [8] 0.005

PTRHD1 (UniProt Q6GMV3)
inactive: ibrutinib 0.042 | [1] -0.101 | ralimetinib -0.007 | [2] -0.045 | [3] 0 | [4] -0.097 | [5] -0.107 | [6] 0.072 | [7] -0.005 | [8] 0.046

PSME4 (UniProt Q14997)
inactive: ibrutinib -0.01 | [1] -0.014 | ralimetinib 0.027 | [2] -0.02 | [3] 0.007 | [4] -0.011 | [5] 0.019 | [6] 0.035 | [7] 0.046 | [8] 0.006

PTS (UniProt Q03393)
inactive: ibrutinib 0.213 | [1] 0.015 | ralimetinib 0.021 | [2] -0.027 | [3] -0.041 | [4] -0.117 | [5] -0.102 | [6] 0.034 | [7] -0.013 | [8] -0.017

PSMD4 (UniProt P55036)
inactive: ibrutinib -0.024 | [1] 0.001 | ralimetinib -0.007 | [2] 0.002 | [3] 0.007 | [4] -0.026 | [5] -0.004 | [6] 0.018 | [7] 0.001 | [8] -0.003

PRRC1 (UniProt Q96M27)
inactive: ibrutinib 0.03 | [1] -0.015 | ralimetinib -0.028 | [2] -0.03 | [3] 0.026 | [4] 0.014 | [5] -0.023 | [6] -0.016 | [7] 0.018 | [8] -0.019

PUM3 (UniProt Q15397)
inactive: ibrutinib 0.023 | [1] -0.003 | ralimetinib 0.065 | [2] -0.032 | [3] -0.057 | [4] 0.03 | [5] -0.043 | [6] -0.031 | [7] -0.131 | [8] 0.039

PTDSS1 (UniProt P48651)
inactive: ibrutinib -0.072 | [1] 0.103 | ralimetinib 0.017 | [2] -0.171 | [3] -0.021 | [4] -0.064 | [5] -0.007 | [6] 0.033 | [7] -0.026 | [8] 0.014

PRPH isoform 2 (UniProt P41219)
inactive: ibrutinib -0.099 | [1] 0.054 | ralimetinib 0.009 | [2] 0.067 | [3] 0.074 | [4] 0.002 | [5] 0.007 | [6] -0.064 | [7] 0.023 | [8] -0.011

PSMG3 (UniProt Q9BT73)
inactive: ibrutinib 0.059 | [1] -0.011 | ralimetinib -0.011 | [2] -0.06 | [3] -0.045 | [4] 0.033 | [5] -0.026 | [6] 0.042 | [7] 0.001 | [8] -0.007

PSMD6 isoform 4 (UniProt Q15008)
inactive: ibrutinib 0.039 | [1] -0.001 | ralimetinib -0.016 | [2] -0.031 | [3] -0.01 | [4] -0.004 | [5] 0.002 | [6] -0.002 | [7] 0.016 | [8] 0.012

PTK7 isoform 6 (UniProt Q13308)
inactive: ibrutinib 0.012 | [1] 0.085 | ralimetinib 0.022 | [2] -0.091 | [3] 0.003 | [4] -0.038 | [5] -0.053 | [6] 0.005 | [7] -0.005 | [8] -0.027

PTGFRN (UniProt Q9P2B2)
inactive: ibrutinib -0.008 | [1] -0.008 | ralimetinib -0.004 | [2] -0.041 | [3] -0.063 | [4] -0.005 | [5] 0.001 | [6] 0.015 | [7] -0.018 | [8] 0.001

PTK2B (UniProt Q14289)
inactive: ibrutinib 0.014 | [1] 0.073 | ralimetinib -0.04 | [2] -0.072 | [3] -0.005 | [4] -0.039 | [5] -0.001 | [6] -0.049 | [7] 0.013 | [8] -0.022

PSPH (UniProt P78330)
inactive: ibrutinib 0.026 | [1] 0.017 | ralimetinib -0.005 | [2] -0.048 | [3] -0.021 | [4] -0.015 | [5] 0.002 | [6] 0.034 | [7] -0.007 | [8] -0.005

PUS1 (UniProt Q9Y606)
inactive: ibrutinib 0.006 | [1] 0.004 | ralimetinib 0.013 | [2] -0.006 | [3] 0.005 | [4] -0.009 | [5] -0.032 | [6] 0.028 | [7] 0.031 | [8] -0.021

PTK2 (UniProt Q05397)
inactive: ibrutinib 0.085 | [1] 0.188 | ralimetinib -0.002 | [2] 0.044 | [3] -0.015 | [4] -0.024 | [5] 0.011 | [6] -0.054 | [7] -0.007 | [8] -0.128

PTBP3 isoform 4 (UniProt O95758)
inactive: ibrutinib -0.019 | [1] -0.024 | ralimetinib 0.01 | [2] 0.02 | [3] 0.024 | [4] -0.035 | [5] 0.064 | [6] 0.011 | [7] 0 | [8] 0.014

PSMD8 (UniProt P48556)
inactive: ibrutinib 0.009 | [1] 0.031 | ralimetinib 0.019 | [2] -0.019 | [3] -0.028 | [4] 0.005 | [5] -0.027 | [6] 0.014 | [7] 0.029 | [8] 0.025

PTGR2 (UniProt Q8N8N7)
inactive: ibrutinib -0.006 | [1] 0.026 | ralimetinib 0.019 | [2] 0.068 | [3] -0.042 | [4] -0.011 | [5] -0.024 | [6] 0.006 | [7] 0.037 | [8] 0.029

PSAT1 (UniProt Q9Y617)
inactive: ibrutinib -0.048 | [1] -0.054 | ralimetinib -0.004 | [2] 0.025 | [3] 0.005 | [4] -0.028 | [5] 0.006 | [6] -0.011 | [7] -0.026 | [8] -0.018

PTRH2 (UniProt Q9Y3E5)
inactive: ibrutinib 0.03 | [1] 0.034 | ralimetinib -0.002 | [2] -0.05 | [3] 0.03 | [4] -0.014 | [5] -0.064 | [6] 0.019 | [7] -0.018 | [8] -0.004

PTPRA (UniProt P18433)
inactive: ibrutinib 0.116 | [1] 0.013 | ralimetinib -0.016 | [2] -0.011 | [3] -0.006 | [4] 0.017 | [5] -0.035 | [6] -0.022 | [7] 0.018 | [8] 0.002

PSMG4 isoform 2 (UniProt Q5JS54)
inactive: ibrutinib -0.061 | [1] -0.005 | ralimetinib 0.029 | [2] 0.023 | [3] -0.026 | [4] 0.041 | [5] 0.001 | [6] 0.068 | [7] 0.04 | [8] 0.026

PSMB4 (UniProt P28070)
inactive: ibrutinib -0.018 | [1] -0.01 | ralimetinib 0.011 | [2] -0.035 | [3] -0.029 | [4] -0.031 | [5] -0.016 | [6] 0.024 | [7] -0.022 | [8] -0.003
